Reference: patent US20250084409A1, “COMPOSITIONS AND METHODS FOR CAPPING RNAS” (Verve Therapeutics, Inc., priority 2022, published 2025)

System: dsRNA
Assay: % dsRNA in mRNA samples (sandwich ELISA)
Settings: for amount by which dsRNA content of 5231 is lower than that of this analog: 5231 = 0.03%

Row | Compound | amount by which dsRNA content of 5231 is lower than that of this analog | % dsRNA (mRNA made with the analog, FIG. 13)
1 | COC1C(OP([O-])(=S)OCC2OC(n3cnc4c(=O)[nH]c(N)nc43)C(O)C2O)C(COP(=O)(O)OP(=O)(O)OP(=O)(O)OCC2OC(n3c[n+](C)c4c(=O)[nH]c(N)nc43)C(O)C2O)OC1n1cnc2c(N)ncnc21 (stereo not drawn) [1007a, m^7G(ppp) Am(ps)G] | ~0.03% | 
2 | COC1C(O[P@@]([O-])(=S)OCC2OC(n3cnc4c(=O)[nH]c(N)nc43)C(O)C2O)C(COP(=O)(O)OP(=O)(O)OP(=O)(O)OCC2OC(n3c[n+](C)c4c(=O)[nH]c(N)nc43)C(O)C2O)OC1n1cnc2c(N)ncnc21 (stereo partly drawn) [1007a_D1, m^7G(ppp) Am(ps)G] | about 0.01% | 
3 | COC1C(OP(=O)(O)OCC2OC(n3cnc4c(=O)[nH]c(N)nc43)C(O)C2O)C(COP(=O)(O)OP(=O)([O-])OP(=O)(O)OCC2OC(n3c[n+](Cc4ccc(Cl)cc4)c4c(=O)[nH]c(N)nc43)C(O)C2O)OC1n1cnc2c(N)ncnc21 (stereo not drawn) [compound 5231, 4-Cl-Bn7G(ppp) Am(p)G] |  | 0.03%
